{"source": "PubChem BioAssay AID1347076", "about": "(National Center for Advancing Translational Sciences (NCATS), 2019)", "note": "Several values for one entry are separate records, joined by “and”; a condition that tells them apart may be missing. Equal entries are not always repeated. In all, about 400,000 compounds went through this assay and about 13,000 (3.2%) were called active. Inconclusive means that the source gave no clear call. Such entries were picked first, then a sample of the others. Calls come from the whole dose curve; as a rule, active = well fitted cell-killing curve with a large enough effect; inconclusive = small, poorly fitted or top-dose-only effect, or effect the other way; inactive = flat fitted curve, though single readings scatter. A potency beside an inconclusive call is a rough fit, not a confirmed value. % is set by controls: 0 for no effect and ±100 for the full control effect; potency is the fitted concentration of half-maximal effect.", "data": [{"assay": "qHTS assay for MDR1-selective chemotherapeutics: Primary screen using the drug-selected MDR subline cells KB-V1; note: nearly all actives have a fitted effect of over 60% in size", "settings": "KB-V1 MDR cells viability, CellTiter-Glo, 72 h; activity change, negative = cytotoxicity: at 46.1 µM (top of the series)", "outline": "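Compound-treated KB-V1 multidrug-resistant cells, 72 h, 37 degrees C; viability by CellTiter-Glo. Fitted qHTS curves give the values.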", "values": [{"molecule": "COc1ccc(-c2cnc(SCC(=O)Nc3nc(C(C)(C)C)cs3)n2Cc2ccco2)cc1", "Potency": "inconclusive: 20.6 µM [cytotoxic, single point]"}, {"molecule": "COc1cc(S(=O)(=O)N2CCOCC2)ccc1N", "activity change, negative = cytotoxicity": "inactive: 2.08%"}, {"molecule": "CC(O)C(=O)N/N=C/c1cccc2ccccc12", "note": "(configuration not stated)", "Potency": "inconclusive: 10.3 µM [cytotoxic, partial curve, poor fit]"}, {"molecule": "COc1ccccc1OCCCn1c(=O)oc2ccc(C)cc21", "Potency": "inconclusive: 23.1 µM [cytotoxic, partial curve]"}, {"molecule": "COc1ccc(N(CC(=O)Nc2cccc(C(F)(F)F)c2)S(=O)(=O)c2c(C)[nH]c(=O)[nH]c2=O)cc1", "Potency": "inconclusive: 23.1 µM [rising, single point]"}, {"molecule": "COc1cccc(C(=O)N(C)Cc2c(C)nn(C3CCS(=O)(=O)C3)c2C)c1", "note": "(configuration not stated)", "Potency": "inconclusive: 23.1 µM [cytotoxic, single point]"}, {"molecule": "CC1CCCC(C)N1S(=O)(=O)c1ccc(NC(=O)CNCC2CCCO2)cc1", "note": "(configuration not stated)", "Potency": "inconclusive: 29.1 µM [cytotoxic, partial curve, poor fit]"}, {"molecule": "Cc1cc(C)n(/N=C/c2c[nH]c3ccccc23)c(=O)c1C#N", "Potency": "inconclusive: 0.0052 µM [cytotoxic, full curve]"}, {"molecule": "COc1ccc(NC(=O)CSC2=Nc3ccccc3C3=NC(CCC(=O)NC4CCCCC4)C(=O)N23)cc1Cl", "note": "(configuration not stated)", "activity change, negative = cytotoxicity": "inactive: 16.9%"}, {"molecule": "CCOC(=O)C=Cc1ccc(C(=O)OCC)[nH]1", "Potency": "inconclusive: 16.4 µM [cytotoxic, partial curve]"}, {"molecule": "CC(=O)N1CCC2(CC1)C/C(=N\\NC(=S)Nc1ccccc1C)c1cc(O)ccc1O2", "Potency": "inconclusive: 18.4 µM [rising, single point]"}, {"molecule": "CSc1ccc(C2C(C#N)=C(N)Oc3cc4c(cc32)OCO4)cc1", "note": "(configuration not stated)", "Potency": "active: 4.61 µM"}, {"molecule": "CCOC(=O)c1cc(NC(=O)c2ccccc2)c(=O)n2c1oc1ccc(Cl)cc12", "activity change, negative = cytotoxicity": "inactive: 3.19%"}, {"molecule": "CCOc1ccccc1CNS(=O)(=O)c1ccc(-c2cnc(C3CC3)o2)cc1", "Potency": "inconclusive: 4.11 µM [cytotoxic, partial curve, poor fit] and active: 1.46 µM"}, {"molecule": "COc1ccc(-n2c(C)nc3c(cnn3-c3ccc(C)cc3)c2=O)cc1", "activity change, negative = cytotoxicity": "inactive: -3.32%"}, {"molecule": "O=C(CSc1ncccn1)NC(=O)Cc1ccccc1", "activity change, negative = cytotoxicity": "inactive: 0%"}, {"molecule": "Cc1cccc(-n2c(C)cc(/C=N/NC(N)=S)c2C)c1", "Potency": "inconclusive: 20.6 µM [cytotoxic, single point]"}, {"molecule": "FC(F)(F)c1cccc(CN2CCC(c3cc(-c4cccs4)n[nH]3)CC2)c1", "Potency": "inconclusive: 18.4 µM [cytotoxic, single point]"}, {"molecule": "O=C(Nc1cc(F)ccc1F)C1CCN(C(=O)c2cnn(-c3ccccc3)c2-n2cccc2)CC1", "Potency": "inconclusive: 4.11 µM [rising, full curve, poor fit]"}, {"molecule": "Cc1ccc(-c2noc(C3CCCN(C(=O)c4ccc(C(C)(C)C)cc4)C3)n2)o1", "note": "(configuration not stated)", "Potency": "inconclusive: 7.31 µM [cytotoxic, partial curve]"}, {"molecule": "CSc1nc(NCc2ccccc2)c2c3c(sc2n1)CN(C)CC3", "Potency": "inconclusive: 3.26 µM [cytotoxic, full curve]"}, {"molecule": "CC(C)N(C1=N/C(=C\\c2ccco2)C(=O)N1c1ccccc1)C(C)C", "activity change, negative = cytotoxicity": "inactive: -0.413%"}, {"molecule": "O=C(COc1ccccc1Br)Nc1ccc(S(=O)(=O)N2CCCC2)cc1", "Potency": "inconclusive: 29.1 µM [cytotoxic, single point]"}, {"molecule": "O=C(C1CC(=O)N(C2CCCC2)C1)N1CCN(c2ccccc2F)CC1", "note": "(configuration not stated)", "activity change, negative = cytotoxicity": "inactive: -3.4%"}, {"molecule": "O=C(CCCn1c(=O)c2ccccc2n(Cc2ccccc2)c1=O)NCc1ccco1", "Potency": "inconclusive: 16.4 µM [cytotoxic, partial curve]"}, {"molecule": "CCN(CC)S(=O)(=O)c1ccc(-c2nnc(SCC(=O)N3c4ccccc4CC3C)o2)cc1", "note": "(configuration not stated)", "Potency": "inconclusive: 8.2 µM [cytotoxic, partial curve]"}, {"molecule": "Cc1ccc(C(=O)NC(O)C(Cl)Cl)cc1", "note": "(configuration not stated)", "activity change, negative = cytotoxicity": "inactive: 1.46%"}, {"molecule": "CCN(CC)S(=O)(=O)c1ccc(N2CCCC2)c(NC(=O)C2CCCCC2)c1", "activity change, negative = cytotoxicity": "inactive: 5.66%"}, {"molecule": "Cc1nc(SCC(=O)NC(C)(C)C)c2c(-c3cccs3)csc2n1", "Potency": "inconclusive: 18.4 µM [cytotoxic, partial curve]"}, {"molecule": "O=C(Nc1ccc(-c2ccc3nncn3n2)cc1)C1CCCC1", "Potency": "inconclusive: 0.731 µM [rising, full curve, poor fit]"}, {"molecule": "Cc1nc(SCC(=O)N2CCN(C(=O)c3cccs3)CC2)c2c(C)c(C)sc2n1", "Potency": "inconclusive: 32.6 µM [cytotoxic, partial curve, poor fit]"}, {"molecule": "Cc1ccc(C)c(N2CCN(C(=O)C(Cc3ccccc3)n3cccc3)CC2)c1", "note": "(configuration not stated)", "Potency": "inconclusive: 29.1 µM [cytotoxic, single point]"}, {"molecule": "COC(=O)c1cccc(Nc2c(-c3ccc(OC)cc3)nc3nc[nH]n23)c1", "activity change, negative = cytotoxicity": "inactive: -0.125%"}, {"molecule": "C/C(CC(=O)Nc1cc(Cl)ccc1C)=N\\NC(=O)C(=O)N1CCCC1", "Potency": "inconclusive: 29.1 µM [rising, single point]"}, {"molecule": "Cc1ccc(S(=O)(=O)Nc2cccc(C(=O)NCc3cccnc3)c2)cc1F", "activity change, negative = cytotoxicity": "inactive: 10.5%"}, {"molecule": "Cc1ccc(CNC(=O)C2CCCN2C(=O)Nc2ccccc2)cc1", "note": "(configuration not stated)", "activity change, negative = cytotoxicity": "inactive: 17.1%"}, {"molecule": "O=C(Nc1ccc(F)cc1)C(CCc1ccccc1)N1CCN(C(=O)c2ccco2)CC1", "note": "(configuration not stated)", "Potency": "inconclusive: 4.11 µM [cytotoxic, full curve]"}, {"molecule": "CCCN(C(=O)c1cn(-c2ccccc2)nc1-c1ccc(OC)cc1)C1CCS(=O)(=O)C1", "note": "(configuration not stated)", "Potency": "inconclusive: 3.66 µM [cytotoxic, full curve]"}, {"molecule": "CCN(CC)c1ccc(NC(=O)c2cc3c(OC)cccc3[nH]2)cc1", "Potency": "inconclusive: 29.1 µM [cytotoxic, single point]"}, {"molecule": "O=S1(=O)C=C(Sc2nc3ccccc3s2)c2ccccc21", "Potency": "inconclusive: 0.92 µM [cytotoxic, full curve, poor fit]"}, {"molecule": "Cc1ccc(CSCc2ccc(C(=O)NC3CC3)o2)cc1", "Potency": "inconclusive: 2.31 µM [cytotoxic, full curve, poor fit]"}, {"molecule": "CCCn1c(C)cc(/C=C(\\C#N)C(=O)OCC(=O)Nc2ccc(OC)c(Cl)c2)c1C", "Potency": "inconclusive: 20.6 µM [cytotoxic, partial curve, poor fit]"}]}]}
